Test results taken from PubChem BioAssay AID328 (DTP/NCI, 2004).
The list does not hold the whole screen: it is rich in T/C values a quarter to a half above the control, in often repeated tests (any T/C) and in doses without a T/C. Further doses and runs are listed elsewhere. T/C gives the treated animals as a percentage of the vehicle group. Some entries give survivors of the animals treated and no T/C: the source holds a T/C of zero for them, seemingly a mark for toxic or unscored doses. Some doses without a T/C left all or most animals alive at the check, yet need not have been tolerated: the source hardly ever lists a survival T/C far under the control, and the zero likely stands for such cases as well. Survivors were counted at the toxicity check, usually on the fifth day, unless a day is given; later deaths do not show. Schedules are NCI's codes, read here as Q, the interval in days (D) or hours (H), X, the number of doses. For survival time, this PubChem deposit counts one and a half times the control or more as active, and values a quarter to a half above the control carry no call in these data; other NCI protocols may use other cut-offs. Some T/C values are followed by the survivors on the day toxicity was checked, most often the fifth; where none is given, no animal had died by that day.

Test system: BDF1 mice, P388 leukemia ip, median survival T/C
Assay: NCI In Vivo Anticancer Drug Screen. Data for tumor model P388 Leukemia (intraperitoneal) in B6D2F1 (BDF1) mice
Settings: T/C endpoint: median survival time, higher T/C = longer survival
Outline: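 Reported as T/C, where T is the survival measurement in dosed animals and C the same measurement in vehicle controls.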

[1] = dose: 3.0 mg/kg/injection, schedule: Q01DX009 (ip), vehicle: DMSO
[2] = dose: 50.0 mg/kg/injection, schedule: Q01DX009 (ip), vehicle: saline with Tween-80
[3] = dose: 200.0 mg/kg/injection, schedule: Q04DX003 (ip), vehicle: saline with Tween-80
[4] = dose: 400.0 mg/kg/injection, schedule: Q04DX003 (ip), vehicle: saline with Tween-80
[5] = dose: 200.0 mg/kg/injection, schedule: Q01DX009 (ip), vehicle: water
[6] = dose: 200.0 mg/kg/injection, schedule: Q01DX009 (ip), vehicle: saline with Tween-80
[7] = dose: 400.0 mg/kg/injection, schedule: Q01DX009 (ip), vehicle: saline with Tween-80
[8] = dose: 200.0 mg/kg/injection, schedule: Q01DX009 (ip), vehicle: saline
[9] = dose: 400.0 mg/kg/injection, schedule: Q04DX003 (ip), vehicle: saline
[10] = dose: 50.0 mg/kg/injection, schedule: Q01DX009 (ip), vehicle: Klucel (hydroxypropylcellulose) (HPC)

CC(C#N)Oc1cccc2ccccc12 (centres undefined) was tested, and the T/C (dose: 2.0 mg/kg/injection, schedule: Q01DX009 (ip), vehicle: DMSO) was 130 % of control, the T/C [1] was 130 % of control and the survivor count [1] was 6 of 6. For the same molecule, the survivor count (dose: 4.5 mg/kg/injection, schedule: Q01DX009 (ip), vehicle: DMSO) was 6 of 6, the survivor count (dose: 50.0 mg/kg/injection, schedule: Q01DX009 (ip), vehicle: DMSO) was 4 of 5 and the survivor count (dose: 100.0 mg/kg/injection, schedule: Q01DX009 (ip), vehicle: DMSO) was 2 of 6. The survivor count (dose: 200.0 mg/kg/injection, schedule: Q01DX009 (ip), vehicle: DMSO) was 2 of 6, the survivor count (dose: 200.0 mg/kg/injection, schedule: Q04DX003 (ip), vehicle: DMSO) was 5 of 6 and the survivor count (dose: 400.0 mg/kg/injection, schedule: Q01DX009 (ip), vehicle: DMSO) was 1 of 6. The survivor count (dose: 400.0 mg/kg/injection, schedule: Q04DX003 (ip), vehicle: DMSO) was 6 of 6.
With COC(=O)N1c2ccccc2C=CC1C#N (centres undefined) the survivor count [2] was 6 of 6, the survivor count [3] was 6 of 6 and the survivor count [4] was 3 of 6.
N/C(=N/O)c1[nH]cnc1N was tested, and the survivor count (dose: 6.25 mg/kg/injection, schedule: Q01DX009 (ip), vehicle: water) was 6 of 6 and the survivor count [5] was 2 of 6.
In the case of CC(=Nc1ccccc1)C1=C(O)C(Cc2ccc(O)cc2)NC1=O (centres undefined), the survivor count [6] is reported as 6 of 6 and the survivor count [7] is reported as 1 of 6.
For CCC1OC(=O)C(C)C(OC2CC(C)(O)C(O)C(C)O2)C(C)C(O)C(C)(O)CC(C)C(=O)C(C)C(O)C1C (centres undefined), the survivor count (dose: 400.0 mg/kg/injection, schedule: Q01DX009 (ip), vehicle: saline) was 0 of 6.
In the case of CCOP(=O)(NCCCOC)OCC, the survivor count (dose: 19.0 mg/kg/injection, schedule: Q01DX009 (ip), vehicle: saline) is reported as 6 of 6 and the survivor count (dose: 21.0 mg/kg/injection, schedule: Q04DX003 (ip), vehicle: saline) is reported as 2 of 6.
C1=C\CCCCCCCC/1 was tested, and the survivor count (dose: 6.25 mg/kg/injection, schedule: Q01DX009 (ip), vehicle: saline with Tween-80) was 6 of 6, the survivor count (dose: 12.5 mg/kg/injection, schedule: Q01DX009 (ip), vehicle: saline with Tween-80) was 6 of 6 and the survivor count (dose: 25.0 mg/kg/injection, schedule: Q01DX009 (ip), vehicle: saline with Tween-80) was 6 of 6.
CCOS(C)(=O)=O was tested, and the survivor count [8] was 6 of 6 and the survivor count [9] was 2 of 6.
CCOC(=O)N1CCN(C(=O)OCC)CC1 was tested, and the survivor count [3] was 6 of 6 and the survivor count [4] was 2 of 6.
In the case of CNC(=O)OCc1c(COC(=O)NC)c(-c2ccc(Cl)cc2Cl)n2c1CCC2, the T/C (dose: 12.5 mg/kg/injection, schedule: Q01DX009 (ip), vehicle: other) is reported as 127 % of control, the T/C (dose: 25.0 mg/kg/injection, schedule: Q01DX009 (ip), vehicle: other) is reported as 142 % of control and the T/C (dose: 50.0 mg/kg/injection, schedule: Q01DX009 (ip), vehicle: other) is reported as 145 % of control. For the same molecule, the survivor count (dose: 200.0 mg/kg/injection, schedule: Q01DX009 (ip), vehicle: other) was 0 of 6.
In the case of CC(=O)C(C(C)=O)c1ccccc1.CC(=O)C(C(C)=O)c1ccccc1.[Ni], the survivor count (dose: 25.0 mg/kg/injection, schedule: Q01DX009 (ip), vehicle: Klucel (hydroxypropylcellulose) (HPC)) is reported as 6 of 6.
COc1cc2c(c(OC)c1OC)-c1cc(I)c(O)cc1[C@@H](NC(C)=O)CC2 was tested, and the survivor count (dose: 150.0 mg/kg/injection, schedule: Q04DX003 (ip), vehicle: saline with Tween-80) was 2 of 6.
COc1ccccc1Cc1c(OC)cc(OC)c(C(=O)CCc2ccccc2)c1O was tested, and the T/C (dose: 2.0 mg/kg/injection, schedule: Q01DX009 (ip), vehicle: saline) was 141 % of control and the T/C (dose: 4.0 mg/kg/injection, schedule: Q01DX009 (ip), vehicle: saline) was 144 % of control.
With C#CC1(OCC(O)CCl)CCCCC1 (centres undefined) the survivor count [7] was 2 of 6.
In the case of CC(C)N(CC#N)C(C)C, the survivor count (dose: 1.0 mg/kg/injection, schedule: Q04DX003 (ip), vehicle: saline with Tween-80) is reported as 0 of 6, the survivor count (dose: 50.0 mg/kg/injection, schedule: Q04DX003 (ip), vehicle: saline) is reported as 0 of 6 and the survivor count (dose: 100.0 mg/kg/injection, schedule: Q04DX003 (ip), vehicle: saline) is reported as 0 of 6. For the same molecule, the survivor count (dose: 200.0 mg/kg/injection, schedule: Q04DX003 (ip), vehicle: saline) was 0 of 6.
With OC12C3CCCC1CCCC2CCC3 (centres undefined) the survivor count (dose: 100.0 mg/kg/injection, schedule: Q04DX003 (ip), vehicle: saline sonified) was 6 of 6 and the survivor count (dose: 400.0 mg/kg/injection, schedule: Q04DX003 (ip), vehicle: Klucel (hydroxypropylcellulose) (HPC)) was 6 of 6.
With C=CC(=O)NCNC(=O)C=C the T/C [3] was 140 % of control.
C=C(Cl)CSCCS was tested, and the T/C (dose: 100.0 mg/kg/injection, schedule: Q01DX009 (ip), vehicle: acetone) was 136 % of control.
In the case of N=C(N)c1ccc(C(=N)N)cc1, the survivor count [5] is reported as 1 of 6 and the survivor count (dose: 400.0 mg/kg/injection, schedule: Q04DX003 (ip), vehicle: water) is reported as 1 of 6.
In the case of O=C1CCCC(=O)C1C(C[N+](=O)[O-])c1ccccc1 (centres undefined), the T/C [10] is reported as 128 % of control.
With CCNC1=C(N2CC2)C(=O)C(NCC)=C(N2CC2)C1=O the survivor count (dose: 3.0 mg/kg/injection, schedule: Q01DX009 (ip), vehicle: saline) was 6 of 6.
CC(CN)OCc1ccccc1 (centres undefined) was tested, and the survivor count (dose: 25.0 mg/kg/injection, schedule: Q04DX003 (ip), vehicle: saline) was 6 of 6.
With CN1CCC2=C(C1)C(N1CCCCC1)CS(=O)(=O)O2 (centres undefined) the survivor count (dose: 100.0 mg/kg/injection, schedule: Q04DX002 (ip), vehicle: saline) was 5 of 6, the survivor count (dose: 200.0 mg/kg/injection, schedule: Q04DX002 (ip), vehicle: saline with Tween-80) was 1 of 6 and the survivor count (dose: 400.0 mg/kg/injection, schedule: Q04DX002 (ip), vehicle: saline with Tween-80) was 0 of 6.
C1=CN(c2ccc(/C=C\c3ccnc4ccccc34)cc2)C=CN1c1ccc(/C=C\c2ccnc3ccccc23)cc1 was tested, and the T/C (dose: 100.0 mg/kg/injection, schedule: Q01DX009 (ip), vehicle: saline with Tween-80) was 130 % of control [5 of 6 alive] and the T/C [6] was 140 % of control.
In the case of NC(CO)Cc1ccccc1 (centres undefined), the survivor count [10] is reported as 0 of 6.
For O=C(/C=C/c1ccccc1)NC(CO)Cc1ccccc1 (centres undefined), the survivor count [2] was 5 of 6.
With CCN(CC)CC(C)OC(=O)c1ccc(N)cc1 (centres undefined) the T/C (dose: 50.0 mg/kg/injection, schedule: Q01DX009 (ip), vehicle: saline) was 125 % of control, the survivor count [8] was 3 of 6 and the survivor count [9] was 0 of 6.
